From paper doi:10.1101/2021.04.15.440011
No constants are given. Whether binding was seen depends on the method and setting. Binding seen in cells or lysates may run through a third protein. Some results given as binding are weak or reduced against the parent protein; the word gives no strength.

Sequences of proteins named here, by UniProt entry; tags and fusion partners are left off.
UniProt Q15561: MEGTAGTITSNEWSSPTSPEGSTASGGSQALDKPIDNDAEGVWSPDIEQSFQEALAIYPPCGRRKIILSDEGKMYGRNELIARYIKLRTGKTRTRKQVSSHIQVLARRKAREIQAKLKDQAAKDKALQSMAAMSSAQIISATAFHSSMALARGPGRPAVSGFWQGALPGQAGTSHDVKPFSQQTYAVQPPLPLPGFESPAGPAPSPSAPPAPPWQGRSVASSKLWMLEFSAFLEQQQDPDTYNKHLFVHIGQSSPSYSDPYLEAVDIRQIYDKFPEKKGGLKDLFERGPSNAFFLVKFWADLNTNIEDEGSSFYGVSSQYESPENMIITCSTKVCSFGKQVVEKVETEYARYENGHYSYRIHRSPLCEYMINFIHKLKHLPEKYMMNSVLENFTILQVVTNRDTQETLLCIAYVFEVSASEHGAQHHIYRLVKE
UniProt P28347: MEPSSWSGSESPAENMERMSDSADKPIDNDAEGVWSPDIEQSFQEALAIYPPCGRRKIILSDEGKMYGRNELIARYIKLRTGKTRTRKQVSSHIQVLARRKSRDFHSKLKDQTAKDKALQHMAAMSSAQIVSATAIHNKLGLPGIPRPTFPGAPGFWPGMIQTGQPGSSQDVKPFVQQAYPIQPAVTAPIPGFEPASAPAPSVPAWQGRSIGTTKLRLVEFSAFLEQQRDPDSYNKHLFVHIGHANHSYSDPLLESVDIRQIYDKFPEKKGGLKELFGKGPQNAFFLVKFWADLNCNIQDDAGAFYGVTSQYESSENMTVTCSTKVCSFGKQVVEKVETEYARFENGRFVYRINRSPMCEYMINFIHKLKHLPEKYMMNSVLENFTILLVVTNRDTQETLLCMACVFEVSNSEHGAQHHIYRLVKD
UniProt Q9GZV5: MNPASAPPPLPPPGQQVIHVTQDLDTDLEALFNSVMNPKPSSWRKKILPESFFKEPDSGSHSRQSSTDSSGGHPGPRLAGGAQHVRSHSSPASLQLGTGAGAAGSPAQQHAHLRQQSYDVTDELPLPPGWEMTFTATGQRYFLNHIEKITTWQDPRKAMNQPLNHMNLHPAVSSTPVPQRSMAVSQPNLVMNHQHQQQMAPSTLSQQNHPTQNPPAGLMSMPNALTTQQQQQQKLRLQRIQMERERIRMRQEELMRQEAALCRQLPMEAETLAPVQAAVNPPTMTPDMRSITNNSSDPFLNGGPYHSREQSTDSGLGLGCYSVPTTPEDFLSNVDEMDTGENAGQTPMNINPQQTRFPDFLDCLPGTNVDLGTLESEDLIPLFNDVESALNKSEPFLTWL
UniProt P84022: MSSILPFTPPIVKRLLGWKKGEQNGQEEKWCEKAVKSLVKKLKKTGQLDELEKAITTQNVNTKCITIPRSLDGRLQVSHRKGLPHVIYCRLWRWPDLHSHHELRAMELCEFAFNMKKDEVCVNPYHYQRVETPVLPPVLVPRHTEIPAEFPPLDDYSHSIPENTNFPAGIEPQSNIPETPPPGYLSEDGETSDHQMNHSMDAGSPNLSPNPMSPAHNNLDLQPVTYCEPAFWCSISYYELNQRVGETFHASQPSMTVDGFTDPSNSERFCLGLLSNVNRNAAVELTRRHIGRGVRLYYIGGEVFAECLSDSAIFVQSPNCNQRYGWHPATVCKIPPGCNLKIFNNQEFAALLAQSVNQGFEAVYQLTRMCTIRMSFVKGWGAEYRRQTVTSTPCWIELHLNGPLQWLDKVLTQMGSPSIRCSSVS

What was measured:
Test in all cases: co-IP
myc-TEAD4 = myc-TEAD4 (UniProt Q15561)
myc-TEAD1 = myc-TEAD1 (UniProt P28347)
[1] = molecular target: TAZ (transcriptional co-activator, paralog of YAP1) (human (endogenous in HK2)) (UniProt Q9GZV5)

Row | Substance | binding (myc-TEAD4) | binding (myc-TEAD1) | binding [1]
1 | HA-TAZ (from UniProt Q9GZV5 1-400) | binds | binds | –
2 | phosphorylated mothers against decapentaplegic homolog 3 (p-SMAD3) (from UniProt P84022 1-425) | – | – | binds
